Reference: the supplement of paper PMC12823440, “Inhibitors supercharge kinase turnover through native proteolytic circuits” (Nature, 2025)
The list shows a part of the results. Hit calls seldom repeat between salt and free forms of one compound.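 Kinases were expressed as nanoluciferase fusions in K562 cells and luminescence was read every 4 h between 2 and 18 h as percent of control, DMSO set to 100% and a positive control to 0%. A time point counts as decreased when the signal drops significantly (2 sigma). The hit call is the authors' own, does not follow from the count of time points alone, and its rule is not shown.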

By UniProt entry, the sequences of proteins in these tests, tags left out. Where a name states a change or a piece, a line headed by the entry shows the natural chain unless it says otherwise.
UniProt Q13131: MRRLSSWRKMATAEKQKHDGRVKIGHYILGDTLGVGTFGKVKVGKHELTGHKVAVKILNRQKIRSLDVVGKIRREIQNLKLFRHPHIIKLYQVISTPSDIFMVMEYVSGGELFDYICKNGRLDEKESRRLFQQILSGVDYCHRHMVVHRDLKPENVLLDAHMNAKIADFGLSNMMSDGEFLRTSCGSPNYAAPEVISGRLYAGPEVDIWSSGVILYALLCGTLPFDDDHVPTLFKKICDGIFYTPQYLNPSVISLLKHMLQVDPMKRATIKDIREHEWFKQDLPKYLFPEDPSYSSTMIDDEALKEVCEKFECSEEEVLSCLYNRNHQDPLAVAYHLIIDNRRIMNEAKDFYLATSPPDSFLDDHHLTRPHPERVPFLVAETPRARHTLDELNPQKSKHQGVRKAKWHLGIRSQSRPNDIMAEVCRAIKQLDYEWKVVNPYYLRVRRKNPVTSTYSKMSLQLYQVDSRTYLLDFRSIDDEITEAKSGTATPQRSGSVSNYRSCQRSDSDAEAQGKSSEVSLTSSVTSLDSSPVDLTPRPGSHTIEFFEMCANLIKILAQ
UniProt P49137, whole entry, looked up: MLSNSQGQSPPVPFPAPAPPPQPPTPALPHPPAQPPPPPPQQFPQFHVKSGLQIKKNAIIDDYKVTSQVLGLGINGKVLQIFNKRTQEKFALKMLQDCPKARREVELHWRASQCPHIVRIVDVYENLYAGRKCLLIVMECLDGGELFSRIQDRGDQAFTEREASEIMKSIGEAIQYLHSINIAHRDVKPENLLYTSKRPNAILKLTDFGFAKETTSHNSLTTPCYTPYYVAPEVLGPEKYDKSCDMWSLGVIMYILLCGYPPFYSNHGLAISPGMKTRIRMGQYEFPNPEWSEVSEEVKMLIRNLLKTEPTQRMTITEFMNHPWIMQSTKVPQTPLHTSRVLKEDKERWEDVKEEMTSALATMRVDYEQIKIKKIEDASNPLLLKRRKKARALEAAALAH
UniProt P42356, whole entry, looked up: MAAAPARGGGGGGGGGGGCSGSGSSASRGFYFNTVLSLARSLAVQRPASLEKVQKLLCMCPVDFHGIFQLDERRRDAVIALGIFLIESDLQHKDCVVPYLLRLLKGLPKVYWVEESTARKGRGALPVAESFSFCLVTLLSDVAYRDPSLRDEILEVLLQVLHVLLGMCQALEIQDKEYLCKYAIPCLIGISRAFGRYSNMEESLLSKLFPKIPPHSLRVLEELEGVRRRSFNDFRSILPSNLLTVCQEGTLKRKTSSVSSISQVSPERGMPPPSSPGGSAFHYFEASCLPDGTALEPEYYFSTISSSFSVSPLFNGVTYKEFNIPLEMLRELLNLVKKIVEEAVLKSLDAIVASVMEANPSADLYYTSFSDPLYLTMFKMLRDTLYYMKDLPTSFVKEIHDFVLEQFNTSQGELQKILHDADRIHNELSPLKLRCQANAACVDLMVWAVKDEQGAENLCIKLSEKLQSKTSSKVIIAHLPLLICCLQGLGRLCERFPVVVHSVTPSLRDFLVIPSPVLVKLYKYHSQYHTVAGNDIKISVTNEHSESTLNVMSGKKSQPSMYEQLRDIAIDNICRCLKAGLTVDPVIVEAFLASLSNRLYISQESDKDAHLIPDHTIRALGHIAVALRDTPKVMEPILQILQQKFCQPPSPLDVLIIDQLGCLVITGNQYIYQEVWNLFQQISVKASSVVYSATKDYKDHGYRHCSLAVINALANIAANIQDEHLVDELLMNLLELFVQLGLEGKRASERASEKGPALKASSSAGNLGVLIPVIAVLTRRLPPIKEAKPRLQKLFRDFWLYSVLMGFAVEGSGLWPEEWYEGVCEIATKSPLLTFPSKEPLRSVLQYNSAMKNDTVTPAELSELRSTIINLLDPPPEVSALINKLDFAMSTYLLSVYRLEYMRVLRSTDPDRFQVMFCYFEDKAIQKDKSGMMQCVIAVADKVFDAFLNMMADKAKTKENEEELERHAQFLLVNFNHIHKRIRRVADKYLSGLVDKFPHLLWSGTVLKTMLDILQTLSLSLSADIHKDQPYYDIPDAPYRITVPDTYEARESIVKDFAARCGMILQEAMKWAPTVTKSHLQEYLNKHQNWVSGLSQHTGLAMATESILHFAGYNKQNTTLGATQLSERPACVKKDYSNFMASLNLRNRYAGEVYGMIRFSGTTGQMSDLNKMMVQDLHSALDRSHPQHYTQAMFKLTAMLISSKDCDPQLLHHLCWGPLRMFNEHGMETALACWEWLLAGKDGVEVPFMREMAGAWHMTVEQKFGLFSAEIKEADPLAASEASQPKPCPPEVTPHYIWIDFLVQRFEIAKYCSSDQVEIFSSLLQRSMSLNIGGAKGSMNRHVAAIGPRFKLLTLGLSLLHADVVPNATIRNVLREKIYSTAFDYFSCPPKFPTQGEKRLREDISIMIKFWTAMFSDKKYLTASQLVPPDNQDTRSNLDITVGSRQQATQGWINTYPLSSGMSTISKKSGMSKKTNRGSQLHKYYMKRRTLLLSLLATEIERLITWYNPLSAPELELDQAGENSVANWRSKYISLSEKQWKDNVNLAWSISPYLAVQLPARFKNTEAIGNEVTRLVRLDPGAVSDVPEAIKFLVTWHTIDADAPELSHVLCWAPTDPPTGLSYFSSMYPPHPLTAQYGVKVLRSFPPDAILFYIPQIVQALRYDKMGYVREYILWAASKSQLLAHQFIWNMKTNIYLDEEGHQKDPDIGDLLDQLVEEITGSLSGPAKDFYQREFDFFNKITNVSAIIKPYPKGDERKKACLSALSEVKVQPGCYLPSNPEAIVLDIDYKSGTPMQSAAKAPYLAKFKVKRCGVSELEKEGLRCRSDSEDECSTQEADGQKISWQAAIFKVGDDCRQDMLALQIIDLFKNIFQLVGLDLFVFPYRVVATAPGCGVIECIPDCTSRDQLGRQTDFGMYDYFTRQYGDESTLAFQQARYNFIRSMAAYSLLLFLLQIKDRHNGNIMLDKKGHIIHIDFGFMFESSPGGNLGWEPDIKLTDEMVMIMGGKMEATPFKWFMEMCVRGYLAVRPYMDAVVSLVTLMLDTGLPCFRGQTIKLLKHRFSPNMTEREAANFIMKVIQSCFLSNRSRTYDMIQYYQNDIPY
UniProt Q16288, whole entry, looked up: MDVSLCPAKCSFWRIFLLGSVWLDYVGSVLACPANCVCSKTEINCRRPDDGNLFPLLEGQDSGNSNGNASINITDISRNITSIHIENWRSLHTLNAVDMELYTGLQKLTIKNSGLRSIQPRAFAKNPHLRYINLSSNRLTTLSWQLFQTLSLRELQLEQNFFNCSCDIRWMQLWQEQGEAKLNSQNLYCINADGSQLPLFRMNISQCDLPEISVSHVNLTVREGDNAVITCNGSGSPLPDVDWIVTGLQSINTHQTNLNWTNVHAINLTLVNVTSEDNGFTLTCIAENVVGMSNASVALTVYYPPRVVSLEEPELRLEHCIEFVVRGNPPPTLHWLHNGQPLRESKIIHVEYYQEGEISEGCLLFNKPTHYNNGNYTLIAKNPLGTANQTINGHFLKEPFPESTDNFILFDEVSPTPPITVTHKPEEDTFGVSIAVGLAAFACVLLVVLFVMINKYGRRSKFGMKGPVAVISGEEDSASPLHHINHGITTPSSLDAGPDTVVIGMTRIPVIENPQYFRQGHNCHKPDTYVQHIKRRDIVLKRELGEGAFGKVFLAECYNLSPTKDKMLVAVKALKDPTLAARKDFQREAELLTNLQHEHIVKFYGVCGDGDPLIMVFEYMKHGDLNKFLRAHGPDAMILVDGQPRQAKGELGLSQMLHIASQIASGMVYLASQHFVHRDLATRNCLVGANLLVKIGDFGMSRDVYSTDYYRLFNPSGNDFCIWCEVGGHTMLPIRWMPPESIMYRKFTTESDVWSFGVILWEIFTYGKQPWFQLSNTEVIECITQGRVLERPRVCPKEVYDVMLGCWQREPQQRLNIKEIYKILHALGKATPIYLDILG
UniProt Q05397, whole entry, looked up: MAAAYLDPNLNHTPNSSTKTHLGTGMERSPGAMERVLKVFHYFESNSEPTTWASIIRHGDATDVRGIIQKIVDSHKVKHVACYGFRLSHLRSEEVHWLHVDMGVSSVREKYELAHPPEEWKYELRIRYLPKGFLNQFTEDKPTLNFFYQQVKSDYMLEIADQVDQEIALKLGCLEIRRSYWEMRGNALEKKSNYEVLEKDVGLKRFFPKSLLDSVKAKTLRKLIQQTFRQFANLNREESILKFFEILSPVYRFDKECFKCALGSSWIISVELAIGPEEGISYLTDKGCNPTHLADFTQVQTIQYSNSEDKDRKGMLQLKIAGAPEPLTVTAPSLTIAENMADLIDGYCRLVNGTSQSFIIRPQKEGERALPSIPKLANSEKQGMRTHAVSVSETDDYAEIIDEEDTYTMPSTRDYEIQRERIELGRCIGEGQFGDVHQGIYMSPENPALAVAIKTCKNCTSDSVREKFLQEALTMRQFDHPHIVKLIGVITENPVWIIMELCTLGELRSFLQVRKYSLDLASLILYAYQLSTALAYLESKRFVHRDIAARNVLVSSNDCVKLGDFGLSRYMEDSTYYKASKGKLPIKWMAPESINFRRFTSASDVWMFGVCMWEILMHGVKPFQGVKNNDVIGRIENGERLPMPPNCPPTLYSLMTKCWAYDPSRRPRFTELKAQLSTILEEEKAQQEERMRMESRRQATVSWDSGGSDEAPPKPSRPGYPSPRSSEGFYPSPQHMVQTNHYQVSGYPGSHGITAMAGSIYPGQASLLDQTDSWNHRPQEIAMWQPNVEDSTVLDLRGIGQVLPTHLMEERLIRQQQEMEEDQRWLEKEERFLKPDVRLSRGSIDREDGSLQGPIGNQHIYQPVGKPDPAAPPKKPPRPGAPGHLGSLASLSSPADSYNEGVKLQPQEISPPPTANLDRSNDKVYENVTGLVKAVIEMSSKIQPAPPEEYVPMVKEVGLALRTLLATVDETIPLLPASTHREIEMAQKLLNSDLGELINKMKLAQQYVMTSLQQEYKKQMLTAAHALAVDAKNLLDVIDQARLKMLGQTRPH
UniProt Q9UM73: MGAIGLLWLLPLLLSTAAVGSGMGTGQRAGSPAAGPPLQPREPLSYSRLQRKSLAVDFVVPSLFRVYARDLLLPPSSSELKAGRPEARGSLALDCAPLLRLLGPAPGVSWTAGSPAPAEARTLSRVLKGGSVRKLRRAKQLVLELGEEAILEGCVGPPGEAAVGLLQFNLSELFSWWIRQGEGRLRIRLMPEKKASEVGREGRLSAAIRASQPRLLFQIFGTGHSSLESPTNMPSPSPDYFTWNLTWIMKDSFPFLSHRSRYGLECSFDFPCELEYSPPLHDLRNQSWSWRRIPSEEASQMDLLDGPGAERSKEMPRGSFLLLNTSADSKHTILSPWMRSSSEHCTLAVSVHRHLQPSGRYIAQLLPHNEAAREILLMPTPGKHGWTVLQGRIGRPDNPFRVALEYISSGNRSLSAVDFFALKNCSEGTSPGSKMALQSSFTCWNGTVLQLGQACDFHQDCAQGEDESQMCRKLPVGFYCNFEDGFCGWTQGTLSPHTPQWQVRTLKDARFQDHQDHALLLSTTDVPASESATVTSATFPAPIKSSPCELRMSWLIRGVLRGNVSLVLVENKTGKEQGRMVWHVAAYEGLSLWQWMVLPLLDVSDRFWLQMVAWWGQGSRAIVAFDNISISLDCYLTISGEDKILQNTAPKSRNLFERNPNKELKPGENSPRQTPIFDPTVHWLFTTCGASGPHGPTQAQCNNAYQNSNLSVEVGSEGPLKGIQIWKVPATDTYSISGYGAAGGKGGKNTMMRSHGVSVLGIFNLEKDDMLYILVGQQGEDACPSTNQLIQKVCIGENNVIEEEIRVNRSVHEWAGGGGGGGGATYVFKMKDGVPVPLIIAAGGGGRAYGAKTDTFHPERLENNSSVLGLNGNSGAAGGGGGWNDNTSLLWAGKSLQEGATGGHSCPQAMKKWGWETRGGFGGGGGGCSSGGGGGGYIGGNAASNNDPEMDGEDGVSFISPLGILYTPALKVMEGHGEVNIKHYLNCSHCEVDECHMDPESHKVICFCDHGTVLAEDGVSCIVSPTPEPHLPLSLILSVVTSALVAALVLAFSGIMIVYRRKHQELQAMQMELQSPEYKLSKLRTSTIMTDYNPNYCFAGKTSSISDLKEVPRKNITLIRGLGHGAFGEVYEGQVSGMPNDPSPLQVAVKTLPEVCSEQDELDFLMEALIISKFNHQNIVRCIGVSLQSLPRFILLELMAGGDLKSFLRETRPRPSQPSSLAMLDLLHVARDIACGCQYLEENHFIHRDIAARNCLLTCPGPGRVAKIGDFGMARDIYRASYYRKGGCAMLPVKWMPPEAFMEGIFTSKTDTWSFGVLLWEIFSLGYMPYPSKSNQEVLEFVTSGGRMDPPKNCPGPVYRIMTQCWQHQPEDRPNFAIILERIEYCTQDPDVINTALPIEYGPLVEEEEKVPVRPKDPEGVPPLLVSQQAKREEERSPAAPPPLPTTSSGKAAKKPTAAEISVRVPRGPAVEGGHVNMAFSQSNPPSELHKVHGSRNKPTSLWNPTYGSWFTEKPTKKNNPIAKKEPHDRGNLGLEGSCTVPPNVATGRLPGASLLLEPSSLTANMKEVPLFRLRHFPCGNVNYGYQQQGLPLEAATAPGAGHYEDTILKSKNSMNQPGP

Columns and labels:
Assay in all cases: number of time points (of 5) at which kinase-Nluc abundance scored as decreased, DMSO-normalised (count); higher = more persistent destabilization
Details in all cases: 10 µM; K562; 2-18 h
[1] = compound: Clc1ccc(C2(c3ccc(-c4cn[nH]c4)cc3)CCNCC2)cc1
MK-8033 (hydrochloride) = compound: Cn1cc(-c2cnc3ccc4ccc(CS(=O)(=O)NCc5ccccn5)cc4c(=O)c3c2)cn1 [MK-8033 (hydrochloride)]
[2] = compound: Cn1cc(-c2cnc3ccc4ccc(CS(=O)(=O)NCc5ccccn5)cc4c(=O)c3c2)cn1
[3] = compound: Cn1ncc(Cl)c1-c1cc(C(=O)N[C@H](CN)Cc2cccc(F)c2)sc1Cl [Afuresertib (hydrochloride)]
Afuresertib = compound: Cn1ncc(Cl)c1-c1cc(C(=O)N[C@H](CN)Cc2cccc(F)c2)sc1Cl [Afuresertib]
[4] = compound: FC(F)(F)c1ccc(CNc2ccc(Cc3c[nH]c4ncc(Cl)cc34)cn2)cn1 [Pexidartinib (hydrochloride)]
Pexidartinib = compound: FC(F)(F)c1ccc(CNc2ccc(Cc3c[nH]c4ncc(Cl)cc34)cn2)cn1 [Pexidartinib]
Itacitinib adipate = compound: N#CCC1(n2cc(-c3ncnc4[nH]ccc34)cn2)CN(C2CCN(C(=O)c3ccnc(C(F)(F)F)c3F)CC2)C1 [Itacitinib adipate]
Itacitinib = compound: N#CCC1(n2cc(-c3ncnc4[nH]ccc34)cn2)CN(C2CCN(C(=O)c3ccnc(C(F)(F)F)c3F)CC2)C1 [Itacitinib]
Momelotinib sulfate = compound: N#CCNC(=O)c1ccc(-c2ccnc(Nc3ccc(N4CCOCC4)cc3)n2)cc1 [Momelotinib sulfate]

Row | Target | number of time points [1] | number of time points (MK-8033 (hydrochloride)) | number of time points [2] | number of time points [3] | number of time points (Afuresertib) | number of time points [4] | number of time points (Pexidartinib) | number of time points (Itacitinib adipate) | number of time points (Itacitinib) | number of time points (Momelotinib sulfate)
1 | RAF1 (UniProt P04049) | 2 | 0 | 0 | 0 | 0 | 0 | 0 | 0 | 0 | 0
2 | EGFR (UniProt P00533) | 0 | 0 | 0 | 0 | 0 | 0 | 0 | 0 | 0 | 0
3 | PRKAA1 (UniProt Q13131) | 0 | 0 | 0 | 0 | 0 | 0 | 0 | 0 | 0 | 0
4 | IRAK3 (UniProt Q9Y616) | 0 | 0 | 0 | 0 | 0 | 0 | 0 | 0 | 0 | 0
5 | PRKCA (UniProt P17252) | 0 | 0 | 0 | 0 | 0 | 0 | 0 | 0 | 0 | 0
6 | CDK3 (UniProt Q00526) | 0 | 0 | 0 | 0 | 0 | 0 | 0 | 0 | 0 | 0
7 | ROR2 (UniProt Q01974) | 0 | 0 | 0 | 0 | 0 | 0 | 0 | 0 | 0 | 0
8 | RET (UniProt P07949) | 0 | 0 | 0 | 0 | 0 | 0 | 0 | 0 | 0 | 0
9 | TEC (UniProt P42680) | 0 | 0 | 0 | 0 | 0 | 0 | 2 | 0 | 0 | 0
10 | CDK6 (UniProt Q00534) | 0 | 0 | 0 | 0 | 0 | 0 | 0 | 0 | 0 | 0
11 | FYN (UniProt P06241) | 0 | 0 | 0 | 1 | 0 | 0 | 0 | 0 | 0 | 0
12 | CSK (UniProt P41240) | 0 | 0 | 0 | 0 | 0 | 0 | 0 | 0 | 0 | 0
13 | RPS6KA1 (UniProt Q15418) | 0 | 0 | 0 | 0 | 0 | 0 | 0 | 0 | 0 | 0
14 | PDGFRB (UniProt P09619) | 0 | 0 | 0 | 0 | 0 | 0 | 0 | 0 | 0 | 0
15 | PDK1 (UniProt Q15118) | 0 | 0 | 0 | 0 | 0 | 0 | 0 | 0 | 0 | 0
16 | MAPK4 (UniProt P31152) | 1 | 0 | 0 | 0 | 0 | 0 | 0 | 0 | 0 | 0
17 | PIK4CB (UniProt Q9UBF8) | 0 | 0 | 0 | 0 | 0 | 0 | 0 | 0 | 0 | 0
18 | FGFR1 (UniProt P11362) | 0 | 0 | 0 | 0 | 0 | 0 | 0 | 0 | 0 | 0
19 | ERN1 (UniProt O75460) | 0 | 0 | 0 | 0 | 0 | 0 | 0 | 0 | 0 | 0
20 | RIPK2 (UniProt O43353) | 0 | 0 | 0 | 0 | 0 | 0 | 0 | 0 | 0 | 1
21 | MAPKAPK2 (UniProt P49137) | 0 | 0 | 0 | 0 | 0 | 0 | 0 | 0 | 0 | 0

Another view of part of the listing above:
Row	Target	number of time points [1]	number of time points (MK-8033 (hydrochloride))	number of time points [2]	number of time points [3]	number of time points (Afuresertib)	number of time points [4]	number of time points (Pexidartinib)	number of time points (Itacitinib adipate)	number of time points (Itacitinib)	number of time points (Momelotinib sulfate)
1	RAF1 (UniProt P04049)	2	0	0	0	0	0	0	0	0	0
3	PRKAA1 (UniProt Q13131)	0	0	0	0	0	0	0	0	0	0
4	IRAK3 (UniProt Q9Y616)	0	0	0	0	0	0	0	0	0	0
5	PRKCA (UniProt P17252)	0	0	0	0	0	0	0	0	0	0
6	CDK3 (UniProt Q00526)	0	0	0	0	0	0	0	0	0	0
7	ROR2 (UniProt Q01974)	0	0	0	0	0	0	0	0	0	0
8	RET (UniProt P07949)	0	0	0	0	0	0	0	0	0	0
9	TEC (UniProt P42680)	0	0	0	0	0	0	2	0	0	0
10	CDK6 (UniProt Q00534)	0	0	0	0	0	0	0	0	0	0
11	FYN (UniProt P06241)	0	0	0	1	0	0	0	0	0	0
12	CSK (UniProt P41240)	0	0	0	0	0	0	0	0	0	0
13	RPS6KA1 (UniProt Q15418)	0	0	0	0	0	0	0	0	0	0
14	PDGFRB (UniProt P09619)	0	0	0	0	0	0	0	0	0	0
15	PDK1 (UniProt Q15118)	0	0	0	0	0	0	0	0	0	0
16	MAPK4 (UniProt P31152)	1	0	0	0	0	0	0	0	0	0
17	PIK4CB (UniProt Q9UBF8)	0	0	0	0	0	0	0	0	0	0
18	FGFR1 (UniProt P11362)	0	0	0	0	0	0	0	0	0	0
20	RIPK2 (UniProt O43353)	0	0	0	0	0	0	0	0	0	1
21	MAPKAPK2 (UniProt P49137)	0	0	0	0	0	0	0	0	0	0

From entry 2 to 3, copied from above:
Row | Target | number of time points [1] | number of time points (MK-8033 (hydrochloride)) | number of time points [2] | number of time points [3] | number of time points (Afuresertib) | number of time points [4] | number of time points (Pexidartinib) | number of time points (Itacitinib adipate) | number of time points (Itacitinib) | number of time points (Momelotinib sulfate)
2 | EGFR (UniProt P00533) | 0 | 0 | 0 | 0 | 0 | 0 | 0 | 0 | 0 | 0
3 | PRKAA1 (UniProt Q13131) | 0 | 0 | 0 | 0 | 0 | 0 | 0 | 0 | 0 | 0

(cont.)

Row | Target | number of time points [1] | number of time points (MK-8033 (hydrochloride)) | number of time points [2] | number of time points [3] | number of time points (Afuresertib) | number of time points [4] | number of time points (Pexidartinib) | number of time points (Itacitinib adipate) | number of time points (Itacitinib) | number of time points (Momelotinib sulfate)
22 | RIOK1 (UniProt Q9BRS2) | 2 | 0 | 0 | 0 | 0 | 0 | 0 | 0 | 0 | 0
23 | FGR (UniProt P09769) | 0 | 0 | 0 | 0 | 0 | 0 | 0 | 0 | 0 | 0
24 | ULK3 (UniProt Q6PHR2) | 1 | 0 | 0 | 2 | 0 | 0 | 0 | 0 | 0 | 0
25 | PTK2B (UniProt Q14289) | 2 | 0 | 0 | 0 | 0 | 0 | 0 | 0 | 0 | 0
26 | MAP2K1 (UniProt Q02750) | 0 | 0 | 0 | 0 | 0 | 0 | 0 | 0 | 0 | 0
27 | FLT3 (UniProt P36888) | 0 | 0 | 0 | 0 | 0 | 0 | 0 | 0 | 0 | 0
28 | GSK3A (UniProt P49840) | 0 | 0 | 0 | 0 | 0 | 0 | 0 | 0 | 0 | 0
29 | MAP4K2 (UniProt Q12851) | 0 | 0 | 0 | 0 | 0 | 0 | 0 | 0 | 0 | 0
30 | EGFR_G719S_T790M (UniProt P00533) | 2 | 1 | 0 | 0 | 0 | 0 | 0 | 0 | 0 | 0
31 | MAPK1 (UniProt P28482) | 0 | 0 | 0 | 0 | 0 | 0 | 0 | 0 | 0 | 0
32 | AURKC (UniProt Q9UQB9) | 0 | 0 | 0 | 0 | 0 | 0 | 0 | 0 | 0 | 0
33 | MAP2K2 (UniProt P36507) | 0 | 0 | 0 | 0 | 0 | 0 | 0 | 0 | 0 | 0
34 | CSNK1D (UniProt P48730) | 0 | 0 | 0 | 0 | 0 | 0 | 0 | 0 | 0 | 0
35 | BMX (UniProt P51813) | 3 | 0 | 0 | 0 | 0 | 0 | 0 | 0 | 0 | 0
36 | CSNK1A1 (UniProt P48729) | 0 | 0 | 0 | 0 | 0 | 0 | 1 | 0 | 0 | 0
37 | EPHA2 (UniProt P29317) | 0 | 0 | 0 | 0 | 0 | 0 | 0 | 0 | 0 | 0
38 | EGFR_L861Q (UniProt P00533) | 3 | 0 | 0 | 0 | 0 | 0 | 0 | 0 | 0 | 0
39 | PIK4CA (UniProt P42356) | 0 | 0 | 0 | 0 | 0 | 0 | 0 | 0 | 0 | 0
40 | ERBB3 (UniProt P21860) | 2 | 0 | 0 | 0 | 0 | 0 | 0 | 0 | 0 | 0
41 | DDR1 (UniProt Q08345) | 1 | 0 | 0 | 1 | 0 | 0 | 0 | 0 | 0 | 0
42 | BLK (UniProt P51451) | 0 | 0 | 0 | 1 | 3 | 0 | 0 | 0 | 0 | 0

Row | Target | number of time points [1] | number of time points (MK-8033 (hydrochloride)) | number of time points [2] | number of time points [3] | number of time points (Afuresertib) | number of time points [4] | number of time points (Pexidartinib) | number of time points (Itacitinib adipate) | number of time points (Itacitinib) | number of time points (Momelotinib sulfate)
43 | NTRK2 (UniProt Q16620) | 1 | 0 | 0 | 0 | – | 0 | 0 | 0 | 0 | 0
44 | NTRK3 (UniProt Q16288) | 0 | 4 | 0 | 0 | 0 | 0 | 0 | 0 | 0 | 0
45 | ARAF (UniProt P10398) | 0 | 0 | 0 | 0 | 0 | 0 | 0 | 0 | 0 | 0
46 | CDK2 (UniProt P24941) | 0 | 0 | 0 | 0 | 0 | 0 | 0 | 0 | 0 | 0
47 | CDK5 (UniProt Q00535) | 0 | 0 | 0 | 0 | 0 | 0 | 0 | 0 | 0 | 0
48 | EGFR_G719S (UniProt P00533) | 1 | 0 | 0 | 0 | 0 | 0 | 0 | 0 | 0 | 0
49 | ZAK (UniProt Q9NYL2) | 0 | 0 | 0 | 0 | 0 | 0 | 0 | 0 | 0 | 0
50 | PBK (UniProt Q96KB5) | 0 | 0 | 0 | 0 | 0 | 0 | 0 | 0 | 0 | 0
51 | DYRK2 (UniProt Q92630) | 4 | 0 | 0 | 3 | 0 | 0 | 0 | 0 | 0 | 0
52 | BTK (UniProt Q06187) | 0 | 0 | 0 | 0 | 0 | 0 | 0 | 0 | 0 | 0
53 | ERBB4_R711C (clone: ERBB4_mut) (UniProt Q15303) | 3 | 0 | 0 | 0 | 0 | 0 | 0 | 0 | 0 | 0
54 | CHEK2 (UniProt O96017) | 0 | 0 | 0 | 0 | 0 | 0 | 0 | 0 | 0 | 0
55 | INSRR (UniProt P14616) | 1 | 0 | 0 | 1 | 0 | 0 | 0 | 0 | 0 | 0
56 | STK24 (UniProt Q9Y6E0) | 0 | 0 | 0 | 0 | 0 | 0 | 0 | 0 | 0 | 0
57 | YES1 (UniProt P07947) | 0 | 1 | 0 | 0 | 0 | 0 | 0 | 0 | 0 | 0
58 | ABL1 (UniProt P00519) | 4 | 0 | 0 | 4 | 0 | 0 | 0 | 0 | 0 | 0
59 | STK38 (UniProt Q15208) | 0 | 0 | 0 | 0 | 0 | 0 | 0 | 0 | 0 | 0
60 | PTK2 (UniProt Q05397) | 1 | 0 | 0 | 0 | 0 | 0 | 0 | 0 | 0 | 0
61 | ALK (UniProt Q9UM73) | 0 | 0 | 0 | 0 | 0 | 0 | 0 | 0 | 0 | 0
62 | MKNK1 (UniProt Q9BUB5) | 0 | 0 | 0 | 0 | 0 | 0 | 0 | 0 | 0 | 0
63 | TYK2 (UniProt P29597) | 4 | 0 | 0 | 0 | 0 | – | 0 | 0 | 0 | 0
